Experimental data as given in PubChem BioAssay AID1347423 (Functional Genomics Laboratory (NCATS/FGL), 2020).
Among all 52,000 sequences or so, about 210 (0.4%) were called active.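 How the source made its calls: active means gene whose silencing raises cell survival under the drug, median off-target-corrected z-score across its silencing RNAs 2 or more; inactive means the rest.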 The list shows a part of the results.

Test: Resistance to Poly (ADP-Ribose) Polymerase inhibitor: Gene Identification via Genome-wide siRNA Screen
Conditions: mouse BRCA2 R2336H ES cells, olaparib, CellTiter-Glo viability; active compounds read high
Outline: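 Mouse BRCA2 R2336H ES cells were reverse-transfected with siRNA (20 nM final), treated at 48 h with 500 nM olaparib, and read by CellTiter-Glo after 72 h. Scores: MAD-based z per siRNA, median per gene, seed off-target correction.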

Row | Sequence | z-score
1 | GGCCUUUUUUAAAAGAAGCTT against Esr2 | inactive: 0.881
2 | GGCUGCCUUGCUGAUUUGATT against Boc | inactive: -2.5
3 | GGACAAGACUCUCAGUUCATT against Atpaf1 | inactive: -1.93
4 | GCAUUGUGCGAUGAGAAGATT against D430015B01Rik | inactive: -0.987
5 | GCUACACUCCAAGCAAAAUTT against Anapc10 | inactive: -0.843
6 | GGCUCUGACGCAGAUCCAATT against Mki67ip | inactive: -2.23
7 | GCACCUCUCAAAGAGUUUATT against Rin2 | inactive: -0.145
8 | GGAUGAUGAUAACUUACAGTT against Mro | inactive: 0.0314
9 | GGUAUAGCAAGUUAAAAGATT against Hip1 | inactive: -0.426
10 | GGCACAGUUAUGCAAAAUATT against Cpa3 | inactive: 0.937
11 | GAAGUUGCACUUUGGCCAGTT against Imap38 | inactive: 0.673
12 | GGCAUGCUAGGAGACAAGATT against 4831416G18Rik | inactive: -0.618
13 | CCUCUAUGCGUCCAAUAUUTT against Jmjd3 | inactive: -0.207
14 | GGACUUUGAUCAGCUGUCUTT against Tmem17 | inactive: -1.37
15 | GGGAUUCCUGAAGCUUCUCTT against Serpinb9b | inactive: -1.24
16 | GGAGGCCAUCACACUUAGATT against 4933421I07Rik | inactive: -1.3
17 | CAGAGUAUAGCAUAGUGACTT against BC050099 | inactive: -0.33
18 | GCUCUAUAGUUAAUUAGGGTT against Rbm3 | inactive: 0.0324
19 | CGUUUGUACCUGCGGAAAATT against Olfr270 | inactive: 1.59
20 | CCACAUGACCUUACAGCCATT against Zdhhc8 | inactive: -0.733
21 | GGAUACAAAGAGAGUUGUCTT against Eif3s8 | inactive: -2.49
22 | CCUCGGAUAAGGUUAUUGCTT against AI317223 | inactive: 0.673
23 | GGUCUACCAUUUCACCUUGTT against Cops4 | inactive: -2.31
24 | GGUACACUGGUAUACGUAUTT against AA175286 | inactive: 0.0292
25 | CCAAGUUGAGAAAUUUCUGTT against Cndp1 | inactive: -0.22
26 | CCCUUCUUUCAAGAAUCUUTT against Olfr325 | inactive: -0.596

Row | Sequence | z-score
27 | GCAUCAUUAUCUUACCAACTT against Olfr826 | inactive: -0.371
28 | GGACAGAUAGUCCUUCGCUTT against Slc7a8 | inactive: -0.0739
29 | GGGACAAUUGGAAAGGCGATT against 2410080P20Rik | inactive: -0.485
30 | GCCGUGGAUCGAAUAAUUCTT against Coq7 | inactive: -0.745
31 | GCCAGAGACAAGUAUCAGCTT against Egln2 | inactive: -1.41
32 | CCAUGUGAAUGUCUUUAUUTT against Xtrp3s1 | inactive: 0.223
33 | GGUCUUACCAACAGAACCCTT against Rad51ap1 | inactive: 0.371
34 | GCCAAAUUAGGUGACACUATT against 1190002H23Rik | inactive: 0.601
35 | GCUAUUUGACUUGUUGUAATT against Rsb30 | inactive: -0.272
36 | CGUGCACUGACCAACCAUATT against Dcxr | inactive: -0.573
37 | CCCUUAAUGUUUCUAUGGCTT against Klf5 | inactive: 2.5
38 | GGAACUCGGAAUUUCUGCCTT against Csf2 | inactive: -0.754
39 | GGAGUCGAGAGAGCAUUGGTT against Slc30a7 | inactive: -1.54
40 | GGGAUACGUUAAUUGUAACTT against Slc6a5 | inactive: -0.56
41 | GGGUAUGGGAGGACUUUUGTT against V1rd4 | inactive: 0.469
42 | GCCUCGUUGACUCCACUAUTT against Rab3ip | inactive: -0.552
43 | GUCCUGCUUUCUCUCAUCUTT against Olfr686 | inactive: 3.84
44 | GGAGCAAGAUCAAAUAUGATT against Cflar | inactive: -0.46
45 | GCAUUGGACCAGUCCAGAUTT against Nr6a1 | inactive: 1.06
46 | GCCCAAAAGUGGUUUCCAATT against Rab11fip2 | inactive: -1.11
47 | GGUAUACCAUUCUCAUGAGTT against Olfr332 | inactive: -0.157
48 | CCUCCCAGUACACUUGAAATT against Cox7a1 | inactive: 0.417
49 | GGAGAUGGCACAGUCAGUCTT against Slc22a8 | inactive: 1.03
50 | CCCUUGUCUCAUGUCAAGGTT against Eras | inactive: 1.42
51 | CGAGAGUGGGUGGGUUGAATT against BC055757 | inactive: -2.09
52 | GGGAGUGCUUUAGAAAAAATT against C730036D15Rik | inactive: -1.16

Look-ups from the list.
Entry for GGGAGUGCUUUAGAAAAAATT against C730036D15Rik under z-score: inactive: -1.16
Entry for CCCUUGUCUCAUGUCAAGGTT against Eras under z-score: inactive: 1.42
Entry for CCUCCCAGUACACUUGAAATT against Cox7a1 under z-score: inactive: 0.417
Entry for GUCCUGCUUUCUCUCAUCUTT against Olfr686 under z-score: inactive: 3.84
Entry for GGGACAAUUGGAAAGGCGATT against 2410080P20Rik under z-score: inactive: -0.485

Next part.

Row | Sequence | z-score
53 | GGAGAGGUUCCAUGUGACUTT against 1620401E04Rik | inactive: 0.779
54 | GGCCAAUGGGUUAUCUGGATT against Scotin | inactive: -1.27
55 | GCUUCCAGACAAGCUUCGATT against Fthfsdc1 | inactive: -0.985
56 | GCUGCAUCAAAUCUUCCAUTT against Prlpc1 | inactive: -0.42
57 | GGAUUUACAGAAGUGAAGGTT against Cald1 | inactive: 1.42
58 | GCCUUCUGAUAAUAUUAUGTT against C330002D13Rik | inactive: 1.27
59 | CCUGCAUGACGGAAUUCUUTT against Acacb | inactive: 0.307
60 | GGCUGUGAAGUCUAAAACUTT against Thbs4 | inactive: 1.54
61 | CGUAUCAAACAGGAAAUGGTT against Arid5b | inactive: 1.02
62 | CCCAAGCACCAGCCCUAUATT against 1200004M23Rik | inactive: -0.676
63 | CCAAUAAAUUACAAGACGATT against Slc22a9 | inactive: 0.0191
64 | CCGCUUUAAGAUAAACACUTT against 4921503C21Rik | inactive: -0.23
65 | GGAAGUUUUGCUAUUACACTT against Ubap1 | inactive: -1.2
66 | CCUAUGUCAAAAAGGUUCGTT against Slc4a2 | inactive: -0.409
67 | GGGCAGUCAUAGCUUUAGUTT against MGC58365 | inactive: 0.123
68 | GGUCAAAUGAGCAGAAUAATT against Foxi1 | inactive: -1.22
69 | GGGUCCUUUCAAAUAUAUATT against 1200016B17Rik | inactive: -0.663
70 | GGGACAUCAUGUGAAGGACTT against Timm50 | inactive: -0.0671
71 | GGAUCAAUGUGGUACCUAUTT against Sf3a1 | inactive: -3.21
72 | GCUUUUCAGGGCAGGUUACTT against BC062109 | inactive: -0.619
73 | GCUAACAGUAUCCUUAUUUTT against V1rb3 | inactive: -1.66
74 | GGUAAACUGACCCAAGCUGTT against A630026F21Rik | inactive: -3.43
75 | GCCUUUUAUUUGACUCAUATT against Zfp346 | inactive: 0.0155
76 | GGCUAUCCAGAGAUACGUGTT against 3300001G02Rik | inactive: 1.13
77 | GCCGUUUUAUUCACGUGAATT against 1810033M07Rik | inactive: -0.105
78 | GGAUCAUGAAUACGUUCAGTT against Tubb4 | inactive: 0.0428

Row | Sequence | z-score
79 | GCUCAACAGACUCUGUACUTT against Igsf4d | inactive: 2.89
80 | GCCACCAAGUACUUUGGUUTT against V1rg4 | inactive: 0.951
81 | GCCAGUUGACUCUUCUUUATT against 6030404E16Rik | inactive: 0.181
82 | GCCAGGACUUGUUAAAAAGTT against 3732412D22Rik | inactive: 0.154
83 | GCUGUUACCUCCAAGAGUCTT against Stra13 | inactive: -0.311
84 | GGUUAUCCAACCUAGAAUATT against Tmlhe | inactive: -0.7
85 | GGUGGGAAUUACCUUACUUTT against 6820402O20Rik | inactive: 1.26
86 | GGGAAGCUCGUUUUAACAATT against 2400003N08Rik | inactive: -1.97
87 | CGAGAGUGAUGCGCAUUUCTT against Sf3b5 | inactive: -3.21
88 | GGAAGAAAAUCUGAAGCUATT against Scoc | inactive: 0.325
89 | GUACUUCUGGGAAGAAGAGTT against D130074J02Rik | inactive: -0.455
90 | GGACAUCCUUCACCUCACATT against Ptges | inactive: -0.117
91 | CCAUCCCAUAUGUUCCGGUTT against 2610009E16Rik | inactive: -2.18
92 | CCAUUCUCUACAUUCACUCTT against Olfr944 | inactive: -0.787
93 | GCUGGAUACUAAUUGCUUATT against Parva | inactive: 1.79
94 | GGUGCACAUUCAGAACGAUTT against Hars2 | inactive: -1.71
95 | GCUUUUCAGAGCGAUCUCATT against Vps52 | inactive: 0.499
96 | CGCCAUAGUUGGUUUUGUUTT against Scamp4 | inactive: -0.959
97 | GGGUUACGUACAACACAUUTT against Mtf1 | inactive: -0.818
98 | GCCCUUAACAAGAAUGAGUTT against Six6 | inactive: 0.339
99 | CCAAAGUCAUCGAUGCAAATT against Cst6 | inactive: 0.967
100 | GGUCUAUGGUAGUGGAAUATT against Magea7 | inactive: -1.58
101 | GGAGAACAAGAUCUUACAGTT against Nurit | inactive: -0.741
102 | GCAUUUUGAAUCACUUGAATT against Brca2 | inactive: 1.76
103 | GGGAAAAGAAAAGAGGACATT against Serf1 | inactive: -0.561
104 | GCUCAACCCUCAUUGCUUCTT against Zc3hdc8 | inactive: -1.92
